The text below walks through data of article PMC7035285.

Chains of the proteins cited; added tags and fusions are not shown.
UniProt P23804: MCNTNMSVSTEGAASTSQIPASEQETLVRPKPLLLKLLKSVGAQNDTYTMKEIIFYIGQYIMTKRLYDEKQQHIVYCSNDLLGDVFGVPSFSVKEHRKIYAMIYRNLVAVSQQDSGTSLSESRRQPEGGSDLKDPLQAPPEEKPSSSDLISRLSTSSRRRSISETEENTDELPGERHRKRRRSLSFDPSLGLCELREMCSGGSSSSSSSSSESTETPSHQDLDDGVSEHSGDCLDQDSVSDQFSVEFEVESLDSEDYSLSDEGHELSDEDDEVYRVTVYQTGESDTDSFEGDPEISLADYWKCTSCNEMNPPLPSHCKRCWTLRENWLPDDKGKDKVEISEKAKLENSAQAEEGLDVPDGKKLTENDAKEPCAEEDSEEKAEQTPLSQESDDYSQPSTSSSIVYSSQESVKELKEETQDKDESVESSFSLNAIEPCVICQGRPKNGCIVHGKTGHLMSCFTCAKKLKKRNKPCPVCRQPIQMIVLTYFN

These are yes or no findings as the source states them, for the method shown. Binding seen in cells or lysates may run through a third protein. Some entries that bind do so weakly or less than the wild type.

This assay addresses MDM2 (mouse (endogenous in MEF)) (UniProt P23804). In words: co-IP; anti-MDM2 immunoprecipitation from NP-40 lysates of Men1^f/f and Men1^Δ/Δ MEF cells, protein A/G beads, 4 °C, western blotting; IgG as negative control.

B1: MDMX (protein, UniProt O35618 1-489)
chain: MTSHSTSAQCSASDSACRISSEQISQVRPKLQLLKILHAAGAQGEVFTMKEVMHYLGQYIMVKQLYDQQEQHMVYCGGDLLGDLLGCQSFSVKDPSPLYDMLRKNLVTSASINTDAAQTLALAQDHTMDFPSQDRLKHGATEYSNPRKRTEEEDTHTLPTSRHKCRDSRADEDLIEHLSQDETSRLDLDFEEWDVAGLPWWFLGNLRNNCIPKSNGSTDLQTNQDIGTAIVSDTTDDLWFLNETVSEQLGVGIKVEAANSEQTSEVGKTSNKKTVEVGKDDDLEDSRSLSDDTDVELTSEDEWQCTECKKFNSPSKRYCFRCWALRKDWYSDCSKLTHSLSTSNITAIPEKKDNEGIDVPDCRRTISAPVVRPKDGYLKEEKPRFDPCNSVGFLDLAHSSESQEIISSAREQTDIFSEQKAETESMEDFQNVLKPCSLCEKRPRDGNIIHGKTSHLTTCFHCARRLKKSGASCPACKKEIQLVIKVFIA
Turning to B1, the binding result is given as “binds”.
